# Experimental data reported in the supplement of paper PMC12889115.
# The other results are listed elsewhere or left out. Values are raw readings; no control value is given beside them.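 In the initial screen, polymyxin B was used at a concentration that permeabilizes Salmonella's outer membrane but not its inner membrane. Maximum growth was set by DMSO wells with or without polymyxin B. Since plates varied, data were ranked per plate, and compounds giving the lowest OD600 advanced as hits.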
# Tested on: Salmonella enterica serovar Typhimurium SL1344
# Assay: bacterial growth OD600 after 18 h with compound and polymyxin B; higher = more bacterial growth (less inhibition)
# Settings: 50 µM, Mueller-Hinton broth
SMILES,bacterial growth OD600 (polymyxin B 0.75 µg/mL),bacterial growth OD600 (polymyxin B 1 µg/mL)
CCn1cc(CN2CCC3(CC2)c2ccccc2[C@@H](NC(=O)c2cccc(F)c2)[C@@H]3OC)c(C)n1,0.927,
COc1ccc(CCN2CC(C(=O)NCCc3ccccn3)CCC2=O)cc1 (centres undefined),,0.916
CSc1ccc(CC2(CCC(=O)N3CCC(O)(c4ccc(Cl)cc4)CC3)CCC(=O)N2)cc1 (centres undefined),0.869,
Cc1ncc2c(c1CNC(=O)/C=C/c1cccs1)CCN(C(=O)c1ccc3nccnc3c1)C2,0.985,
CC(Nc1ccc(-c2nc(Cc3ccccc3)no2)cn1)c1nncn1C (centres undefined),0.817,
COc1ccc(-c2noc(CN(C)Cc3cnn(-c4ccccc4C)c3)n2)cc1,,0.007
COCC1CCCN(C(=O)C2(N3CCCCC3)Cc3ccccc3C2)C1 (centres undefined),0.723,
O=C(CCCCc1ccccc1)N1CCOc2ccc(CN3CCN(c4ncccn4)CC3)cc2C1,0.61,
CCCOC1CCCN(C(=O)c2ccc(OC3CCN(Cc4ccccn4)CC3)cc2)C1 (centres undefined),,1.07
O=C(Nc1ccc(Oc2ccccc2F)cc1)C1CCN(C2CCC2)CC1,,1.09
CN(C(=O)CCc1nnc(-c2ccc(-c3ccccc3)cc2)o1)C1CCOCC1,,0.801
O=C1CCC(CCC(=O)N(Cc2ccccc2)CC2CC2)(Cc2ccco2)N1 (centres undefined),0.816,
COCCO[C@H]1[C@H](NC(=O)C(C)C)c2ccccc2C12CCN(Cc1cccc(O)c1)CC2,0.891,
Cn1cc(CN2CCCCC2c2nccs2)c(-c2ccc3c(c2)OCCO3)n1 (centres undefined),,0.746
O=C(COc1ccccc1)N1CCCC(Nc2ccc(F)cc2)C1 (centres undefined),,1.09
CC(C)c1ccc(NC2CCCN(C(=O)CCc3cccnc3)C2)cc1 (centres undefined),0.648,
Cc1oc(-c2cc3c(cc2Cl)OCO3)nc1CN1CCCC1c1ccc(F)cc1 (centres undefined),,0.875
O=C(Nc1ccnn1C1CCN(Cc2ccncc2)CC1)C1CCCC1,0.805,
CSCCC(=O)NC(C)c1cnc(N(C)C2CCCCC2)nc1C (centres undefined),,0.725

# Arranged by number of heavy atoms (ascending): 3 of the compounds above.
SMILES,bacterial growth OD600 (polymyxin B 0.75 µg/mL),bacterial growth OD600 (polymyxin B 1 µg/mL)
O=C(COc1ccccc1)N1CCCC(Nc2ccc(F)cc2)C1 (centres undefined),,1.09
CC(C)c1ccc(NC2CCCN(C(=O)CCc3cccnc3)C2)cc1 (centres undefined),0.648,
Cc1ncc2c(c1CNC(=O)/C=C/c1cccs1)CCN(C(=O)c1ccc3nccnc3c1)C2,0.985,
